Assay results taken from US6177405A, “Cyclic analogs of tuftsin” (priority 1992, dated 2001).
At least one peptide structure holds a part that was inferred or is arguable (an end, a ring closure or a residue). Residues, ends and D or L forms follow the SMILES beside them.

Test system: Human polymorphonuclear leukocytes (PMNs)
Test: Phagocytosis assay (fluorescent microspheres engulfed per PMN)
Format: cell-based
Conditions: 15 min incubation, particle to PMN ratio 50:1, FIG. 1
Protocol: Phagocytosis Assay Human polymorphonuclear leukocytes (PMNs) were prepared from venous blood of healthy donors. Heparinized blood was mixed with dextran and kept at 37° C. for 1 hour. The leukocyte-rich plasma was collected and centrifuged. The resulting pellet was washed with Hank's balanced salt solution (HBSS). The pellet was then suspended into HBSS, layered over Lymphocyte Separation Medium (LSM) and centrifuged. The sedimented cells were washed with HBSS. Contaminant erythrocytes were lysed by suspending the cells in sterile water for 15 seconds. The isotonicity was then restored by adding 10× HBSS. After centrifuging, the PMNs were washed with HBSS, suspended in the same medium, counted, and adjusted to 1×10^6 viable cells/ml (viability>95% by trypan blue dye exclusion). Cells (0.5×10^6 /well) were plated in 24 well plate and placed in a 37° C. CO2 incubator for 30 min to form a monolayer. Thereafter the supernatant was aspirated. Tuftsin or analog in 250 μl HBSS and 2.5×10^7 fluorescent microspheres (2 μm diameter) in 250 μl HBSS, were added to each well resulting in a particle to PMN ratio of 50:1, mixed, and incubated for 15 min. The supernatant was then quickly aspirated and each well washed with HBSS. […] After 10 min, particles engulfed per PMN were counted under a microscope (100 cells per well). […]

For `C[C@@H](O)[C@H](N)C(=O)N[C@@H](CCCCN)C(=O)N1CCC[C@H]1C(=O)N[C@@H](CCCNC(=N)N)C(=O)O` [tuftsin, Thr-Lys-Pro-Arg] (H-TKPR-OH), the “optimum concentration in phagocytosis assay” value was 5 µg/mL.
